These are yes or no findings as the source states them, for the method shown. For some of these results: Binding seen in cells or lysates may run through a third protein. Some entries that bind do so weakly or less than the wild type. For some of these results: Where a sequence is shown, tags or fusion partners need not be part of it.

Chains of the proteins cited; added tags and fusions are not shown.
UniProt P25963: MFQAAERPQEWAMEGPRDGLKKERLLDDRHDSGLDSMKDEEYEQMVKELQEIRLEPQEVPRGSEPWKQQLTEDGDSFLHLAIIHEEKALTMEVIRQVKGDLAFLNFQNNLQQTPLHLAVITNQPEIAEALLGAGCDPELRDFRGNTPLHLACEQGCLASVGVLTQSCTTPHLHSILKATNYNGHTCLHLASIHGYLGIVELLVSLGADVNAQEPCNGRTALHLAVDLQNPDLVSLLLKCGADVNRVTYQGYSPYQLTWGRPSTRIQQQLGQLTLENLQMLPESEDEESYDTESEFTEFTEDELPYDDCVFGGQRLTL

For 3 molecules, binding results are on record in PMC5696377.

Test [1] addresses T1, Morgana/chp-1 (CHORDC1 gene product) (human (endogenous in MDA-MB-231, BT549)) (UniProt Q9UHD1).
T1 sequence: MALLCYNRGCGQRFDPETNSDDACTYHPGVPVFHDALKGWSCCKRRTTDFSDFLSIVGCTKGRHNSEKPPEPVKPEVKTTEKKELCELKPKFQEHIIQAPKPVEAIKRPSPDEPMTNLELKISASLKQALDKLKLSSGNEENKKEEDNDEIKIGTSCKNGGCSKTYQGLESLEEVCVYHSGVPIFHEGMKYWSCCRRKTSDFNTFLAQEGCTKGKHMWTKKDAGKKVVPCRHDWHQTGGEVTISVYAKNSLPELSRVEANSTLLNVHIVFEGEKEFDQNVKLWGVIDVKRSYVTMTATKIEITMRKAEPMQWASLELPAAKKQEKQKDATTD
The experiment in a line: co-IP; immunoprecipitation with anti-Morgana antibody from selected gel filtration fractions (around 1000-900 kDa) of MDA-MB-231 extract, immunoblot. (Size exclusion chromatography separates by hydrodynamic size, large species first.)

The target of test [2] is T1, Morgana/chp-1 (CHORDC1 gene product) (human (endogenous in MDA-MB-231, BT549)). The experiment in a line: co-IP; immunoprecipitation of Morgana from MDA-MB-231 or BT549 extracts (lysis buffer 25 mM Tris-HCl pH 8, 1 mM MgCl2), antibody overnight at 4 °C, protein G Sepharose, 10 washes, immunoblot; also done in MDA-MB-231 silenced for Hsp90 or cdc37.
The target of test [3] is recombinant IκBα (UniProt P25963). The experiment in a line: far-Western, overlay or dot blot; 1 µg recombinant protein run on SDS-PAGE, transferred to nitrocellulose, denatured and renatured in AC buffer with falling guanidine-HCl; membrane incubated with MBP-Morgana overnight at 4 °C; detected with primary and secondary antibody; both purified.
Test [4] concerns the target T2, IKKβ (human (endogenous in MDA-MB-231, BT549)) (UniProt O14920).
T2 sequence: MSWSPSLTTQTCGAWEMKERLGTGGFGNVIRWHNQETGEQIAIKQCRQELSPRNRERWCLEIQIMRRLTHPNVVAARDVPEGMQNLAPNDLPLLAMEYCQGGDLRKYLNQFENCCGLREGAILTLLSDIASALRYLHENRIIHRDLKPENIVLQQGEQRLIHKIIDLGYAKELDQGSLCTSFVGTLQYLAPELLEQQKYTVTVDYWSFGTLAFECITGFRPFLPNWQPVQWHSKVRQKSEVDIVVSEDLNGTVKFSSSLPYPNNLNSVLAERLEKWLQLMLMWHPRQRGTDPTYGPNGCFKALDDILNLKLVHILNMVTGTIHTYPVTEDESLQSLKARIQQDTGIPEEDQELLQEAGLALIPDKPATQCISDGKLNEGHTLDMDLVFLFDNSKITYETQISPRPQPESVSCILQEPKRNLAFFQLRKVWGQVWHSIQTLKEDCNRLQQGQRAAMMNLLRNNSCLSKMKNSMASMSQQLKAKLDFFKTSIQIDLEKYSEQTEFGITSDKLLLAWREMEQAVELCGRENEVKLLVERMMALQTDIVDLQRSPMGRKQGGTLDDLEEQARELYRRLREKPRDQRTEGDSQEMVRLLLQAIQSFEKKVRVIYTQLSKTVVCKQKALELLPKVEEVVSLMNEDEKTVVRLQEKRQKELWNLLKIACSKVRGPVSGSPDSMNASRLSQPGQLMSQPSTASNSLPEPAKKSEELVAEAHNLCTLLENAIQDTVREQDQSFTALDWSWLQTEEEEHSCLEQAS
The experiment in a line: co-IP; immunoprecipitation of IKKβ or IKKα, immunoblot; IKKβ immunoprecipitation from MDA-MB-231 control and Morgana-silenced cells. Background: Immunoblotting shows a protein as a band on a membrane.

The target in test [5] is T3, IKKα (human (endogenous in MDA-MB-231, BT549)) (UniProt O15111).
T3 sequence: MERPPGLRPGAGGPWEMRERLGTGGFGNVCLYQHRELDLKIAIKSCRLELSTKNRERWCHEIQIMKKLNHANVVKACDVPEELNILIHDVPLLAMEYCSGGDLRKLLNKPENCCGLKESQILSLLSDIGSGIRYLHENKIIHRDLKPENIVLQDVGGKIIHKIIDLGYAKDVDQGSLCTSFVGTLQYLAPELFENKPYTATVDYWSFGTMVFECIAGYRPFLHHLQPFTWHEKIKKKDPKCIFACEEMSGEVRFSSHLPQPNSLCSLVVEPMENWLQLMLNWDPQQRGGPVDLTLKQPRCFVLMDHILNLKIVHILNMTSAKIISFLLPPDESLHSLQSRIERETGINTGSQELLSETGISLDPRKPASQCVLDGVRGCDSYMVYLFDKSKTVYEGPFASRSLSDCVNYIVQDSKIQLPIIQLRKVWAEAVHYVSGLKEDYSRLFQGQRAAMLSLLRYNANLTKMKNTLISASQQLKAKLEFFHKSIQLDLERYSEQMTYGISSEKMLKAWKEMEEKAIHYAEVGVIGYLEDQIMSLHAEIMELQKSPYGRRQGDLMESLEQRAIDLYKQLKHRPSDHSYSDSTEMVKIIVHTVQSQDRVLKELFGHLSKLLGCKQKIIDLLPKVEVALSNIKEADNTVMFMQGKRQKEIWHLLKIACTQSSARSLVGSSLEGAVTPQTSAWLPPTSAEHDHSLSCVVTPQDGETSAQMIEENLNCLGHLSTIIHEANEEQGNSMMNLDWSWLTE
The test is described as above.

Test [6] deals with T2, IKKβ (human (endogenous in MDA-MB-231, BT549)). The experiment in a line: SEC; total protein extracts of MDA-MB-231 (control and shMORG1) on Superose 6 10/300 GL, 25 mM Tris-HCl pH 8.0, 1 mM MgCl2, 10% glycerol; fractions analysed by Western blot.
Test [7] concerns the target T3, IKKα (human (endogenous in MDA-MB-231, BT549)). The test is described as above.

B1: IKKβ (enzyme, UniProt O14920 1-756)
chain: T2 sequence
For B1, the binding result in test [1] and in test [2] was “binds” each time.

B2: MBP-Morgana recombinant protein (protein, UniProt Q9D1P4 1-331)
chain: MALLCYNRGCGQRFDPEANSDDACTYHPGVPVFHDALKGWSCCKRRTTDFSDFLSIVGCTKGRHNSEKPPEPVKPEVKTTEKKELSELKPKFQEHIIQAPKPVEAIKRPSPDEPMTNLELKISASLKQALDKLKLSSGSEEDKKEEDSDEIKIGTSCKNGGCSKTYQGLQSLEEVCVYHSGVPIFHEGMKYWSCCRRKTSDFNTFLAQEGCTRGKHVWTKKDAGKKVVPCRHDWHQTGGEVTISVYAKNSLPELSQVEANSTLLNVHIVFEGEKEFHQNVKLWGVIDVKRSYVTMTATKIEITMRKAEPMQWASLELPTTKKQEKQKDIAD
Regarding B2, the binding entry in test [3] is given as “binds”.

B3: Morgana/chp-1 (CHORDC1 gene product) (protein, UniProt Q9UHD1 1-332)
chain: T1 sequence
For B3, the binding result in test [4], in test [5], in test [6] and in test [7] was “binds” each time.
